The record followed here is the supplement of paper PMC12889115.

The list shows a part of the results. These are raw signals, not scaled to a control.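 In the initial screen, polymyxin B was used at a concentration that permeabilizes Salmonella's outer membrane but not its inner membrane. Maximum growth was set by DMSO wells with or without polymyxin B. Since plates varied, data were ranked per plate, and compounds giving the lowest OD600 advanced as hits.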

For the assay, the system named is Salmonella enterica serovar Typhimurium SL1344. Kind of assay: bacterial growth OD600 after 18 h with compound and polymyxin B; higher = more bacterial growth (less inhibition). The settings on record: 50 µM, Mueller-Hinton broth.

Turning to `COc1ccccc1CN1CCN(C(=O)Cn2nnnc2CN2CCCC2)CC1`, for the setting “polymyxin B 1 µg/mL”, the “bacterial growth OD600” value turned out to be 1.05.

With `O=C(NCC1CCCN(C(=O)CCN2CCCO2)C1)c1ccc(-c2ccccc2)cc1` (configuration not stated), the “bacterial growth OD600” value (polymyxin B 1 µg/mL) stood at 0.933.

On to `COc1ccc(-c2noc(CN3CCC(OCc4ccccc4)CC3)n2)c(OC)c1OC`, for which the “bacterial growth OD600” value (polymyxin B 1 µg/mL) worked out at 0.945.

Regarding `O=C(CCC1CCN(C(=O)c2cccc3c2C(=O)c2cc(Cl)ccc2-3)CC1)NC1CC1`, under “polymyxin B 1 µg/mL”, the “bacterial growth OD600” value was found to be 0.854.

Consider `Cc1c(CCNC(=O)CSc2ccc3nnc(C)n3n2)c2ccccc2n1-c1ccccc1`, for which the “bacterial growth OD600” value (polymyxin B 0.75 µg/mL) stood at 0.814.

Consider `CCCCN(Cc1ccccc1)Cc1nc(Cc2ccccc2F)no1`, for which the “bacterial growth OD600” value (polymyxin B 1 µg/mL) stood at 0.842.

As to `CC1CCN(Cc2nnnn2CC(=O)NCCc2cccc(C(F)(F)F)c2)CC1`, the “bacterial growth OD600” value (polymyxin B 1 µg/mL) turned out to be 1.16.

Consider `COC(C(=O)Nc1ccnn1C1CCN(C(=O)C(=O)CC(C)C)CC1)c1ccccc1` (configuration not stated), for which the “bacterial growth OD600” value (polymyxin B 0.75 µg/mL) was 0.798.

With `O=C(NCc1cccnc1)c1ccc(N2CCC(NCc3cnn(-c4ccccc4)n3)CC2)cc1`, for the setting “polymyxin B 0.75 µg/mL”, the “bacterial growth OD600” value stood at 0.719.

Regarding `CC(=O)c1ccc(F)c(-c2cc(C)cc3c2OC(CNC(=O)C2CCC2)C3)c1` (configuration not stated), the “bacterial growth OD600” value (polymyxin B 0.75 µg/mL) was found to be 0.7.

For the molecule `CCC1CN(C(=O)CCC(=O)c2ccc(F)cc2)Cc2ccc(Cl)cc2O1` (configuration not stated), the “bacterial growth OD600” value (polymyxin B 0.75 µg/mL) came out at 0.876.

For the molecule `O=C(CCc1ccco1)N1CCc2onc(-c3ccccc3F)c2C1`, the “bacterial growth OD600” value (polymyxin B 0.75 µg/mL) was 0.741.

Take `COc1ccc(OC)c(C(=O)N2CCCC(N3CCN(c4ccc(F)cc4)CC3)C2)c1` (configuration not stated): for the setting “polymyxin B 1 µg/mL”, the “bacterial growth OD600” value worked out at 0.928.

`COC(=O)C1CCN(C(=O)c2cc(COc3ccc(F)c(F)c3)on2)CC1`: for the setting “polymyxin B 0.75 µg/mL”, the “bacterial growth OD600” value was found to be 0.77.

Take `Cc1cc(-c2ccnc(-n3ncc(C(=O)N(C)CC(O)c4ccccc4)c3C3CC3)n2)c(C)s1` (configuration not stated): the “bacterial growth OD600” value (polymyxin B 0.75 µg/mL) was found to be 0.668.

`Cc1ccccc1CCC1CCCN(C(=O)CN2CCOC2=O)C1` (configuration not stated): the “bacterial growth OD600” value (polymyxin B 1 µg/mL) came out at 1.03.

In the case of `Cc1cnc(C)c(-c2ccc3c(c2)CC(CNC(=O)Cc2cccs2)O3)n1` (configuration not stated), the “bacterial growth OD600” value (polymyxin B 0.75 µg/mL) was 0.889.

Regarding `CC(C)c1ccc(NC2CCCN(C(=O)C3(C)CC3)C2)cc1` (configuration not stated), the “bacterial growth OD600” value (polymyxin B 1 µg/mL) worked out at 0.907.

Turning to `Cc1ccc(N2CCC(N3CC[C@@H](N4CCN(C)CC4)[C@H](O)C3)CC2)cc1Cl`, the “bacterial growth OD600” value (polymyxin B 0.75 µg/mL) came out at 0.801.

As to `Cc1ncc2c(c1CNC(=O)/C=C/c1cccs1)CCN(C(=O)C(=O)c1ccccc1)C2`, under “polymyxin B 0.75 µg/mL”, the “bacterial growth OD600” value came to 0.657.

Regarding `Cc1cccc(CCNCc2c(C(=O)N3C[C@@H](C)O[C@@H](C)C3)nc3sccn23)n1`, under “polymyxin B 1 µg/mL”, the “bacterial growth OD600” value is 0.868.

As to `c1ccc(OCc2noc(-c3ccc(NCC4CCCOC4)nc3)n2)cc1` (configuration not stated), for the setting “polymyxin B 1 µg/mL”, the “bacterial growth OD600” value is 0.735.

With `COc1ccccc1CCN1CCCC(CN(C)C(=O)Cc2cccc(C)c2)C1` (configuration not stated), the “bacterial growth OD600” value (polymyxin B 1 µg/mL) amounted to 0.697.

On to `COC(=O)c1ccc(CNCCC2CCC(=O)N2Cc2ccc(C)cc2)cc1` (configuration not stated), for which, for the setting “polymyxin B 0.75 µg/mL”, the “bacterial growth OD600” value was 0.785.

Regarding `COc1ccc(CCN(C)C(=O)c2cnn(-c3ncc4c(n3)-c3ccccc3CCC4)c2C)cc1OC`, the “bacterial growth OD600” value (polymyxin B 0.75 µg/mL) came out at 0.132.

As for `Cc1ccc2c(CC(=O)N3CCc4c(cnc(C)c4CNC(=O)c4ccsc4)C3)cc(=O)oc2c1`, the “bacterial growth OD600” value (polymyxin B 0.75 µg/mL) worked out at 0.813.

Turning to `O=C(CCC(F)(F)F)N1CCc2onc(-c3cccc4ccccc34)c2C1`, for the setting “polymyxin B 0.75 µg/mL”, the “bacterial growth OD600” value came to 0.001.

As to `COc1ccc(OCc2cc(C(=O)N(C)C)n[nH]2)c(Cl)c1`, the “bacterial growth OD600” value (polymyxin B 1 µg/mL) turned out to be 0.892.

As for `Cc1ccccc1CNC(=O)c1coc(CN2CCN(Cc3ccccc3)CC2)n1`, where the note is “polymyxin B 1 µg/mL”, the “bacterial growth OD600” value stood at 1.02.

For the molecule `C=CCN(CC=C)Cc1c(C(=O)N2CCN(C3CCCCC3)CC2)nc2ccccn12`, the “bacterial growth OD600” value (polymyxin B 1 µg/mL) was 0.871.

With `O=C(CC(c1ccccc1)c1cccc(Cl)c1)NCCN1CCNC1=O` (configuration not stated), the “bacterial growth OD600” value (polymyxin B 1 µg/mL) amounted to 1.2.

Take `Cc1ccc(C(=O)N2CCC(C3(Cc4cccc(F)c4)NC(=O)N(CC(C)C)C3=O)CC2)c(C)c1` (configuration not stated): the “bacterial growth OD600” value (polymyxin B 0.75 µg/mL) is 0.817.
